Data from the primary screen of doi:10.1371/journal.pone.0140310, rounded.

Compounds and concentrations:
BMS-536924: Cc1cc(N2CCOCC2)cc2[nH]c(-c3c(NC[C@@H](O)c4cccc(Cl)c4)cc[nH]c3=O)nc12 at 0.2 µM
BI-D1870: CC(C)CCN1c2nc(Nc3cc(F)c(O)c(F)c3)ncc2N(C)C(=O)C1C (stereo unspecified) at 0.2 µM
GW9662: O=C(Nc1ccccc1)c1cc([N+](=O)[O-])ccc1Cl at 2 µM
cediranib: COc1cc2c(Oc3ccc4[nH]c(C)cc4c3F)ncnc2cc1OCCCN1CCCC1 at 0.4 µM
KU-0063794: COc1ccc(-c2ccc3c(N4CCOCC4)nc(N4C[C@@H](C)O[C@@H](C)C4)nc3n2)cc1CO at 0.02 µM
decitabine: Nc1ncn([C@H]2C[C@H](O)[C@@H](CO)O2)c(=O)n1 at 0.1 µM
STA-4783: CN(NC(=O)CC(=O)NN(C)C(=S)c1ccccc1)C(=S)c1ccccc1 at 0.006 µM
KU-55933: O=c1cc(-c2cccc3c2Sc2ccccc2S3)oc(N2CCOCC2)c1 at 1 µM
docetaxel: CC(=O)O[C@@]12CO[C@@H]1C[C@H](O)[C@@]1(C)C(=O)[C@H](O)C3=C(C)[C@@H](OC(=O)[C@H](O)[C@@H](NC(=O)OC(C)(C)C)c4ccccc4)C[C@@](O)([C@@H](OC(=O)c4ccccc4)[C@H]21)C3(C)C at 0.0001 µM
FK866: O=C(/C=C/c1cccnc1)NCCCCC1CCN(C(=O)c2ccccc2)CC1 at 0.01 µM
GSK650394: O=C(O)c1ccc(-c2c[nH]c3ncc(-c4ccccc4)cc23)cc1C1CCCC1 at 0.16 µM

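The test systems are human melanoma cell lines, treated with a pair of drugs for 72 h and then stained and imaged. The read-out is cell count (nuclei) in % of the DMSO control; lower values mean stronger growth inhibition or killing. Every drug was used at one fixed concentration, the lower of two screened (a fifth of the higher). The file gives one value for each pair and line, without errors, so small differences may be noise.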
Only some of the drugs and lines screened are listed, without regard to their results.
An entry leaves out what has no value listed here.
A dash means that no value is listed here.

| # | Combination | 501mel | G-361 | MEL-HO | COLO 800 | COLO 792 | A101D | IPC-298 | LB2518-MEL | COLO 829 | LOX IMVI | A375 | C32 | IST-MEL1 | A2058 |
|---|---|---|---|---|---|---|---|---|---|---|---|---|---|---|---|
| 1 | GW9662 + KU-55933 | 110 | 99.7 | 95.7 | 81.0 | 114 | 107 | 110 | 115 | 79.3 | 81.1 | 98.0 | 107 | 98.7 | 94.6 |
| 2 | KU-0063794 + GW9662 | - | 89.1 | 98.5 | 68.6 | 107 | 93.5 | 98.5 | - | 93.3 | 99.3 | 108 | 105 | 100 | 104 |
| 3 | BI-D1870 + STA-4783 | 19.4 | 85.3 | 92.1 | 44.4 | 61.8 | 75.9 | 106 | 54.7 | 54.5 | 59.8 | 19.7 | 57.1 | 84.3 | 68.4 |
| 4 | GSK650394 + GW9662 | 88.9 | 90.9 | 112 | 76.9 | 98.6 | 112 | 98.8 | 106 | 95.2 | 109 | 90.1 | 89.3 | 98.1 | 99.8 |
| 5 | BI-D1870 + GSK650394 | 95.4 | 99.6 | 83.0 | 132 | 93.0 | 85.2 | 97.7 | 103 | 90.9 | 91.0 | 86.4 | 85.6 | 92.0 | 103 |
| 6 | docetaxel + STA-4783 | - | 22.2 | 53.6 | 35.3 | 28.4 | 57.3 | 69.1 | 50.9 | 47.6 | 62.2 | 13.8 | 78.3 | 61.2 | 3.6 |
| 7 | KU-0063794 + cediranib | 117 | 94.3 | 85.6 | 93.9 | 84.2 | 109 | 103 | 121 | 129 | 187 | 95.0 | 85.6 | 109 | 85.7 |
| 8 | cediranib + decitabine | - | 90.3 | 92.3 | 106 | 83.8 | 95.8 | 62.7 | 88.8 | 100 | 128 | 115 | 104 | 90.0 | 94.0 |
| 9 | KU-55933 + BMS-536924 | 71.8 | 87.1 | 95.1 | 23.8 | 75.5 | 96.4 | 91.0 | 118 | 102 | 118 | 86.5 | 85.8 | 96.2 | 110 |
| 10 | BMS-536924 + docetaxel | - | 18.9 | 61.3 | 23.9 | 34.3 | 68.4 | 65.6 | 61.8 | 55.9 | 52.0 | 14.4 | 80.9 | 76.7 | 8.3 |
| 11 | KU-0063794 + docetaxel | 67.3 | 21.7 | 65.8 | 68.9 | 42.5 | 69.1 | 64.2 | 69.4 | 47.1 | 63.1 | - | 85.3 | 64.9 | 8.0 |
| 12 | docetaxel + FK866 | - | 7.4 | 42.4 | 14.3 | 29.7 | 74.0 | 38.6 | 73.2 | 43.3 | 54.5 | 31.3 | 95.0 | 49.0 | 10.1 |
| 13 | GSK650394 + KU-0063794 | 87.2 | 91.2 | 83.3 | 55.9 | 91.8 | 84.2 | 93.6 | 100 | 74.2 | 67.3 | 77.9 | 91.5 | 88.9 | 94.0 |
| 14 | GSK650394 + docetaxel | - | 28.0 | 59.1 | 26.5 | 30.3 | 63.5 | 69.3 | 59.9 | 48.8 | 77.2 | 16.7 | 88.4 | 66.6 | 12.0 |
| 15 | BMS-536924 + GW9662 | 119 | 89.8 | 98.4 | 46.5 | 89.0 | 108 | 99.9 | 97.3 | 95.0 | 98.3 | 96.1 | 110 | 91.7 | 102 |
| 16 | BI-D1870 + GW9662 | 80.0 | 109 | 103 | 80.9 | 101 | 85.0 | 95.4 | 92.2 | 96.6 | 140 | 93.3 | 92.3 | 90.6 | 99.2 |
| 17 | GW9662 + STA-4783 | 25.1 | 69.3 | 89.7 | 53.2 | 67.7 | 65.7 | 99.8 | 65.2 | 49.9 | 61.1 | 26.3 | 64.8 | 79.7 | 42.6 |
| 18 | decitabine + GSK650394 | - | 84.7 | 76.8 | 83.1 | 91.3 | 92.9 | 66.2 | 89.4 | 84.2 | 82.0 | 99.5 | 91.1 | 79.3 | 81.2 |
| 19 | cediranib + docetaxel | - | 29.1 | 59.5 | 57.1 | 39.7 | 63.3 | 71.5 | 60.1 | 62.8 | 68.6 | 27.4 | 87.0 | 72.9 | 14.3 |
| 20 | FK866 + decitabine | - | 7.7 | 35.8 | 17.2 | 44.5 | 96.4 | 38.9 | 71.3 | 59.5 | 86.2 | 87.8 | 107 | 44.7 | 86.7 |
| 21 | BMS-536924 + KU-0063794 | 91.1 | 76.6 | 85.9 | 36.5 | 73.8 | 87.5 | 93.0 | 96.6 | 100 | 102 | 75.5 | 89.5 | 94.5 | 82.4 |
| 22 | GSK650394 + KU-55933 | 100 | 85.1 | 104 | 90.5 | 95.3 | 127 | 96.9 | 108 | 90.0 | 111 | 97.8 | 117 | 97.5 | 122 |
| 23 | KU-55933 + STA-4783 | 58.1 | 75.5 | 102 | 51.4 | 75.8 | 76.6 | 96.2 | 105 | 64.3 | 121 | 31.1 | 82.8 | 75.5 | 85.2 |

Repeated from the top, 2 entries:

- GW9662 + KU-55933 : 501mel: 110; G-361: 99.7; MEL-HO: 95.7; COLO 800: 81.0; COLO 792: 114; A101D: 107; IPC-298: 110; LB2518-MEL: 115; COLO 829: 79.3; LOX IMVI: 81.1; A375: 98.0; C32: 107; IST-MEL1: 98.7; A2058: 94.6
- KU-0063794 + GW9662 : G-361: 89.1; MEL-HO: 98.5; COLO 800: 68.6; COLO 792: 107; A101D: 93.5; IPC-298: 98.5; COLO 829: 93.3; LOX IMVI: 99.3; A375: 108; C32: 105; IST-MEL1: 100; A2058: 104